## Results of single-concentration screens

A: 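Whole-parasite assay of Trypanosoma brucei over 72 hours; the read-out is not stated. Concentration: 30 µM. Direction is inferred from retests: higher values go with stronger inhibition. Values scatter widely below zero; nearly all retest evidence comes from the higher of the two concentrations used. About 64,000 compounds were tested under these conditions; 1.5% (about 940) showed 50% or more at least once.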
B: 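Assay of Toxoplasma gondii numbers, read through their beta-galactosidase reporter with a colour substrate. Concentration: 10 µM. Higher reads as fewer parasites (inferred from which compounds were picked for retests). Of about 67,000 compounds tested this way, about 260 (0.38%) reached 50% or more in at least one test.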

Values are the deposited “Percent Effect”, in %. The controls that fix the scale are not given in the record; negative values are as filed. Compounds were drawn at random from those tested, without regard to their results. A dash means the value is not listed here; it may have been measured.

Compound,A,B
Cc1ccc(CCN[C@@H]2c3ccccc3C3(CCNCC3)[C@H]2O)s1,-5.593,-1.006
CCCN(C(=O)c1ocnc1C)C1CCCN(Cc2ccccc2)C1 (configuration not stated),-17.57,1.253
O=C(CCn1nc(C(F)(F)F)c(Br)c1C1CC1)NN1CCOCC1,-12.2,13.22
[H][C@@]12CCN(C(=O)Cc3ccsc3)C[C@]1([H])[C@H](c1nc(C)no1)CCO2,-9.224,3.947
Cc1nc(CN2CCOC(Cn3cccn3)C2)nc2ccccc12 (configuration not stated),-,17.48
COc1nn(C)c2c1CCCN(C(=O)c1cc[nH]n1)C2,-,-3.281
Cn1cc(C(=O)OC2CN(c3nc4c(C(F)(F)F)cccc4s3)C2)nn1,-23.97,-11.03
Cc1cc(N2CCN(Cc3ccc(-c4cc[nH]n4)o3)CC2)cc(C)n1,47.03,-1.762
CC(C)Oc1ccccc1OCCN1C(=O)CCNC1=O,-43.63,7.878
C[C@@H]1CN(Cc2ccncc2)C[C@]1(C)O,-30.36,-
Cc1ccc(C(=O)NCCNCC2CNc3ccnn3C2)cc1F (configuration not stated),-33.67,-1.138
CCCc1n[nH]c(C2CN(CCNC3CCCCC3)CCO2)n1 (configuration not stated),-18.44,-8.53
CCc1nc(C2CCCN2C(=O)c2nccnc2N)no1 (configuration not stated),-6.71,-6.842
[H][C@]12CN(c3cnccn3)C[C@@]1(C(=O)O)CN(C1CCCC1)C2,25.16,-2.984
Cc1nc(C)n(C2CCCN(C(=O)c3ccc(CN(C)C)cc3)C2)n1 (configuration not stated),-,18.42
Cc1cnn(C2CCCN(C(=O)Cc3ccc4c(c3)CCO4)C2)c1 (configuration not stated),-30.84,-11.83
Cl.Cl.c1cnc(NCc2cncc3c2CCN(CC2CC2)C3)nc1,-77.39,-2.12
COCC(C)N1CCc2onc(-c3ccc(F)c(F)c3)c2C1 (configuration not stated),-,-22.74
Cc1cc(C)c2c(OCC(=O)N(C)CC(=O)NC(C)C)nn(C)c2n1,-9.997,10.26
Cc1cn(Cc2ccccc2)nc1N,-4.441,-3.689
O=C(O)C(F)(F)F.[H][C@]12C[C@H](C(=O)NC)N(C(C)=O)[C@@]1([H])CN(Cc1c(C)noc1C)C2,-2.938,-10.03
COCCN(C)CC(=O)N1C[C@@H](NC(C)=O)[C@H](c2ccc(OC)cc2)C1,-94.57,-4.451
COC(=O)c1cccc(C(=O)NCc2ccco2)n1,-16.38,4.499
O=C1CCc2cc(S(=O)(=O)NC(=O)c3ccc4c(c3)COC4)ccc2N1,-71.8,7.417
CS(=O)(=O)N[C@@H]1CCO[C@]2(CCN(C(=O)C3=CCCC3)C2)C1,-,1.13
CC(C)n1nc2c(cc1=O)CN(CC1CCCCO1)CC2 (configuration not stated),-3.575,8.706
Cn1c(CN2CCOC(CCc3ccncn3)C2)nc2ccccc21 (configuration not stated),-20.48,-21.32
CCCn1ncc(C(=O)N2CCN(C(=O)c3ccc[nH]3)CC2)c1C,-97.22,-7.662
Cc1cnc(C(=O)N2CCOCC2C)cn1 (configuration not stated),-33.73,-10.63
COc1ccc2c(c1)c(C(=O)Nc1nnn[nH]1)cn2C,-,1.984
O=C(O)C(F)(F)F.O=C(O)C(F)(F)F.[H][C@@]12CN(Cc3nccs3)CCC[C@]1(C(=O)OCC)CN(CCOC)C2,-16.55,-2.144
O=C(O)C(F)(F)F.[H][C@@]12CN(c3ncc(C)cn3)C[C@@]1([H])N(CC(C)C)C(=O)CO2,-65.12,1.649
Cc1cnc(Nc2cccc(C3CCCN3Cc3cn(C)nc3C)n2)s1 (configuration not stated),39.29,24.6
Cc1cncc(C(=O)N2CCC3(CCCN(c4nncs4)C3)C2)c1.O=C(O)C(F)(F)F (configuration not stated),-27.24,8.994
CC(C)S(=O)(=O)N1CCC(c2cc3n(n2)[C@@H](C(F)(F)F)C[C@@H](C)N3)CC1,7.82,8.393
CCCS(=O)(=O)N1CCC2(CC(=O)N(c3cnn(C)c3)C2)C1 (configuration not stated),26.63,5.049
Cc1cc2cccc(NC(=O)N3CCC(N4CCSCC4)CC3)c2o1,-25.32,17.48
CCOc1ccc(-c2c(C#N)c(N)nc3c2COCC3)cn1,-21.9,-
Cc1ccoc1C(=O)N1CCc2ccc(=O)n(CCN(C)C)c2CC1.O=C(O)C(F)(F)F,-66.52,5.124
CN(Cc1ccsc1)C(=O)Nc1cccnc1N1CCCC1,-52.54,-3.829
CCc1cc(=O)n(CC(=O)N2CCCCC2)c(-c2cccc(F)c2)n1,5.221,-14.19
CCS(=O)(=O)CCNCc1cc(O)c2cc(C)cc(C)c2n1,-6.848,-7.544
O=C(O)C(F)(F)F.[H][C@@]12CCN(Cc3ccc(F)cc3)C[C@@]1([H])[C@H](C(=O)NCC1CC1)CCO2,-15.78,18.87
O=C(c1ccoc1)N1CCC2(CC1)C(=O)N(CC1CC1)c1ccccc12,-11.87,-8.987
COC(=O)C(C)N(Cc1cc(=O)n(C)c(=O)n1C)C1CC1 (configuration not stated),-53.4,4.921
CCc1noc(CN2CCC(c3ccnn3CCO)CC2)n1,1.47,0.4614
Cn1ccnc1CC1CCCN(C(=O)Cc2ccccc2)C1 (configuration not stated),1.435,-4.395
CN(CCn1cnnc1)C(=O)c1ccnc(OC2CCC2)c1,-19.87,-1.77
COc1ccccc1C(O)CNC(=O)NCc1csc(C)n1 (configuration not stated),-16.38,5.01
O=C1NC(c2cccnc2)=NC12CCN(CCCc1ccccc1)CC2,21.51,-41.53
CC(C)n1cnnc1CN1CCC2(CCCN(C3CCCCC3)C2=O)C1 (configuration not stated),-42.39,-13.18
CN(CCCOc1ccccc1)Cc1nccn1C,-10.11,-7.568
COc1coc(CN2CCCC(CCc3ccc(F)c(F)c3)C2)cc1=O (configuration not stated),-22.66,7.134
CC(NC(=O)CCC(C)(C)C)C(=O)Nc1ccc(-n2cncn2)cc1 (configuration not stated),-4.525,-0.4049
CN1CCCC(N(C)C(=O)c2ccc(NC(=O)c3cc[nH]n3)cc2)C1 (configuration not stated),0.4516,-18.15
[H][C@@]12CN(C(=O)NC3CCCCC3)C[C@]1([H])OCCN2C(=O)c1ccco1,-26.87,-8.507
Cc1nc(NC2CCCC2)c2c(n1)c(C)nn2C,-10.54,-44.53
Cc1cnn(Cc2cc(F)ccc2F)c1NC(=O)C1CCOCC1,-19.22,-
CC(C)c1nnc2n1CCN(C(=O)COc1ccc(C(N)=O)cc1)C2,16.79,2.664
CN1CCC(NC(=O)c2cc(C3CCCCC3)nc3ccccc23)CC1,11,-14.33
COCCN1CCc2c(CNC(=O)c3nccn3C)cncc2C1.Cl.Cl.Cl,-47.12,16.37
O=C(O)C(F)(F)F.[H][C@@]12CCCO[C@]1([H])[C@H](OCC(=O)N(C)C)CN2Cc1scnc1C,-122.1,12.3
CCc1nc(C2CCCN(C(=O)CCn3ccccc3=O)C2)no1 (configuration not stated),-1.069,-18.35

The first 6 entries again:

| Compound | A | B |
|---|---|---|
| `Cc1ccc(CCN[C@@H]2c3ccccc3C3(CCNCC3)[C@H]2O)s1` | -5.593 | -1.006 |
| `CCCN(C(=O)c1ocnc1C)C1CCCN(Cc2ccccc2)C1` (configuration not stated) | -17.57 | 1.253 |
| `O=C(CCn1nc(C(F)(F)F)c(Br)c1C1CC1)NN1CCOCC1` | -12.2 | 13.22 |
| `[H][C@@]12CCN(C(=O)Cc3ccsc3)C[C@]1([H])[C@H](c1nc(C)no1)CCO2` | -9.224 | 3.947 |
| `Cc1nc(CN2CCOC(Cn3cccn3)C2)nc2ccccc12` (configuration not stated) | - | 17.48 |
| `COc1nn(C)c2c1CCCN(C(=O)c1cc[nH]n1)C2` | - | -3.281 |

Measurements from “University of Dundee, Small-Polar-MMV Screening Library” (2021), ChEMBL document CHEMBL3988442.